Counter-ions that a name gives are not always drawn. Like-named read-outs stand apart in the source and are kept apart here. Screen size: about 3,300 compounds; about 60 (2%) showed an effect of 50% or more. The list shows a part of the results.
Test system: HCoV-OC43
Parameters: species or system RD; HTS, protection from HCoV-OC43 induced cell death, luminescent cell viability (CellCounting-Lite 2.0), inhibition rate
Conditions: 24 h post infection, 1 h compound pre-incubation, 10 µM, inhibitor

Which “OC43 Inhibition rate” value does the source give for CC1(C)C[C@H]2C3=CC[C@@H]4[C@@]5(C)CC[C@H](O)[C@@](C)(CO)[C@@H]5CC[C@@]4(C)[C@]3(C)C[C@H](O)[C@@]2(CO)[C@@H](O)[C@@H]1O [Gymnemagenin] here?
The value was -1%.

COc1ccc(/C=C/C(=O)c2c(O)cc(OC)cc2OC)cc1 [Flavokawain A] was tested. Which “OC43 Inhibition rate” value did it give?
The value was 4%.

For C=C1CC23C[C@H]4[C@@H]5[C@@]6(C)C[C@H](OC(C)=O)C[C@]57C(N4C6)[C@@]2(O)[C@H](OC(C)=O)[C@H]1[C@@H](O)[C@H]37 [Guanfu base A], which “OC43 Inhibition rate” value is on record?
Its value is -0.6%.

How did the “OC43 Inhibition rate” value turn out when C=C(C)[C@@H]1CC[C@]2(C(=O)O)CC[C@]3(C)[C@H](CC[C@@H]4[C@@]5(C)CC[C@H](O)[C@@](C)(CO)[C@@H]5CC[C@]43C)[C@@H]12 [23-Hydroxybetulinic acid] was run?
The value was 7.9%.

How did the “OC43 Inhibition rate” value turn out when O=c1cc(-c2ccc(O)c(-c3c(O)cc(O)c4c(=O)cc(-c5ccc(O)cc5)oc34)c2)oc2cc(O)cc(O)c12 [Amentoflavone] was run?
The value was 7%.

How did the “OC43 Inhibition rate” value turn out when CC(C(=O)c1ccc(O)cc1O)c1ccc(O)cc1 (centres unmarked) [O-Desmethylangolensin] was run?
Its value is 3.3%.

How did the “OC43 Inhibition rate” value (OC43 Inhibition rate, 24 h) turn out when O=C(O)C(=O)O [Oxalic Acid] was run?
The value was -0.7%.

C1CCN2C[C@@H]3C[C@@H](CN4CCCC[C@@H]34)[C@H]2C1 [(-)-Sparteine] was tested. Which “OC43 Inhibition rate” value did it give?
Its value is 2.9%.

With COc1ccc2c(OC)c3ccoc3nc2c1OC [Skimmianine] as the compound, how does the “OC43 Inhibition rate” value read?
The value was 0.3%.

How did the “OC43 Inhibition rate” value turn out when COc1ccc(CCC(=O)c2ccc(O)cc2)c(OC)c1 [Loureirin A] was run?
Its value is 2.8%.

How did the “OC43 Inhibition rate” value turn out when COc1cc2oc(-c3ccc(O)cc3)cc(=O)c2c(O)c1OC [Cirsimaritin] was run?
Its value is 0%.

CC(=O)O[C@H]1C(=O)c2c(O)cc(O)cc2O[C@@H]1c1ccccc1 [Pinobanksin 3-acetate] was tested. Which “OC43 Inhibition rate” value did it give?
Its value is 0.6%.

How did the “OC43 Inhibition rate” value turn out when CCCCCCCCCCCCCCCCCCO [1-Hydroxyoctadecane] was run?
The value was -3.5%.

With COc1cc(O)cc(O)c1C(=O)/C=C/c1ccccc1 [Cardamonin] as the compound, how does the “OC43 Inhibition rate” value read?
The value was 2.4%.

How did the “OC43 Inhibition rate” value turn out when COc1cc(C)c2c(=O)c(-c3ccccc3)coc2c1 [5-Methyl-7-methoxyisoflavone] was run?
The value was -0.3%.

For COc1cc2oc(=O)ccc2c(OC)c1CC=C(C)C [Toddaculin], which “OC43 Inhibition rate” value is on record?
The value was 0.5%.

With CC(C)=C[C@H]1C[C@](C)(O)[C@@H]2[C@H]3CC[C@@H]4[C@@]5(C)CC[C@H](O[C@@H]6OC[C@H](O)[C@H](O[C@@H]7O[C@H](CO[C@@H]8O[C@H](CO)[C@@H](O)[C@H](O)[C@H]8O)[C@@H](O)[C@H](O)[C@H]7O[C@@H]7OC[C@@H](O)[C@H](O)[C@H]7O)[C@H]6O[C@@H]6O[C@@H](C)[C@H](O)[C@@H](O)[C@H]6O)C(C)(C)[C@@H]5CC[C@@]4(C)[C@@]34CO[C@@]2(C4)O1 [Jujuboside A] as the compound, how does the “OC43 Inhibition rate” value read?
The value was -0.4%.

For CC1=C(CC[C@@H](C)CO[C@@H]2O[C@H](CO)[C@@H](O)[C@H](O)[C@H]2O)O[C@H]2C[C@H]3[C@@H]4CC=C5C[C@@H](O[C@@H]6O[C@H](CO)[C@@H](O[C@@H]7O[C@@H](C)[C@H](O)[C@@H](O)[C@H]7O)[C@H](O)[C@H]6O[C@@H]6O[C@@H](C)[C@H](O)[C@@H](O)[C@H]6O)CC[C@]5(C)[C@H]4CC[C@]3(C)[C@@H]12 [Pseudoprotodioscin], which “OC43 Inhibition rate” value is on record?
Its value is -6.7%.

How did the “OC43 Inhibition rate” value turn out when CC(=O)O[C@H]1Cc2c(cc3oc(C)cc(=O)c3c2O)OC1(C)C [3'-O-Acetylhamaudol] was run?
Its value is 14.3%.

How did the “OC43 Inhibition rate” value turn out when COc1cc2c(cc1OC)-c1cc3ccc4c(c3c(=O)n1CC2)OCO4 [8-Oxoepiberberine] was run?
Its value is 10.1%.

CCCCCC(=O)O[C@H](CC(=O)[O-])C[N+](C)(C)C [L-Hexanoylcarnitine] was tested. Which “OC43 Inhibition rate” value did it give?
Its value is -1%.

With CC(C)CC1NC(=O)C(Cc2ccc(O)cc2)NC1=O (centres unmarked) [Cyclo(Tyr-Leu)] as the compound, how does the “OC43 Inhibition rate” value read?
Its value is -5.8%.

Which “OC43 Inhibition rate” value (OC43 Inhibition rate, 24 h) does the source give for C[C@H]1CC[C@]2(NC1)O[C@H]1C[C@H]3[C@@H]4CC[C@H]5C[C@@H](O)CC[C@]5(C)[C@H]4CC[C@]3(C)[C@H]1[C@@H]2C [Tomatidine (hydrochloride)] here?
Its value is 0.4%.

For CC1=C[C@]23C(=O)[C@@H](C=C(CO)[C@@H](O)[C@]2(O)[C@H]1O)[C@H]1[C@@H](C[C@H]3C)C1(C)C [Ingenol], which “OC43 Inhibition rate” value is on record?
Its value is 5.5%.

For CC1=C(C=O)C(C)(C)C[C@H](O[C@@H]2O[C@H](CO)[C@@H](O)[C@H](O)[C@H]2O)C1 [Picrocrocin], which “OC43 Inhibition rate” value is on record?
The value was -0.4%.

With COc1cc2cc(c1Cl)N(C)C(=O)C[C@H](OC(=O)[C@H](C)N(C)C(C)=O)[C@]1(C)O[C@H]1[C@H](C)[C@@H]1C[C@@](O)(NC(=O)O1)[C@H](OC)/C=C/C=C(\C)C2 [Maytansine] as the compound, how does the “OC43 Inhibition rate” value read?
The value was 3.2%.

How did the “OC43 Inhibition rate” value turn out when CC(C)=CCC/C(C)=C/CC/C(C)=C/Cc1c(O)c2ccccc2oc1=O [Ferulenol] was run?
The value was -1.1%.

How did the “OC43 Inhibition rate” value turn out when COC(=O)CC[C@@H](C)[C@H]1CC[C@H]2[C@@H]3[C@H](O)C[C@@H]4C[C@H](O)CC[C@]4(C)[C@H]3C[C@H](O)[C@]12C [Methyl cholate] was run?
The value was -0.2%.

With C=C(CC[C@@H](C(=O)O)[C@H]1[C@H](O)C[C@@]2(C)C3=CC[C@H]4C(C)(C)[C@@H](O)CC[C@]4(C)C3=CC[C@]12C)C(C)C [Dehydrotumulosic acid] as the compound, how does the “OC43 Inhibition rate” value read?
Its value is -1.5%.

With O=C(O)C1=CCCNC1 [Guvacine hydrochloride] as the compound, how does the “OC43 Inhibition rate” value read?
Its value is -0.5%.

Which “OC43 Inhibition rate” value (OC43 Inhibition rate, 24 h) does the source give for CC[C@H](CC[C@@H](C)[C@H]1CC[C@H]2[C@@H]3CC=C4C[C@@H](O)CC[C@]4(C)[C@H]3CC[C@]12C)C(C)C [Beta-Sitosterol (purity>75%)] here?
Its value is -4.5%.

COc1ccc2cc3[n+](cc2c1O)CCc1cc2c(cc1-3)OCO2 [Berberrubine (chloride)] was tested. Which “OC43 Inhibition rate” value did it give?
The value was -0.4%.

For CC(=O)N1C[C@H](O)C[C@H]1C(=O)O [Oxaceprol], which “OC43 Inhibition rate” value is on record?
The value was 0.4%.

Which “OC43 Inhibition rate” value does the source give for O=c1cc(-c2ccc(O)cc2)oc2cccc(O)c12 [4',5-Dihydroxyflavone] here?
Its value is 19.4%.

For COc1cc(O)c2c(=O)cc(-c3ccc(O)c(O)c3)oc2c1 [Hydroxygenkwanin], which “OC43 Inhibition rate” value is on record?
Its value is 17%.

How did the “OC43 Inhibition rate” value turn out when COc1cc(/C=C/C(=O)NCCc2ccc(O)cc2)ccc1O [N-trans-Feruloyltyramine] was run?
Its value is 6.3%.

For COc1ccc(CC(=O)O)cc1OC [3,4-Dimethoxyphenylacetic acid], which “OC43 Inhibition rate” value is on record?
Its value is -0.2%.

With CCC(=O)c1c(O)cc(O)cc1O [Flopropione] as the compound, how does the “OC43 Inhibition rate” value read?
The value was 1.3%.

For COc1c(O)c(C)cc2c1C(=O)c1c(O)cccc1C2=O [Obtusifolin], which “OC43 Inhibition rate” value is on record?
Its value is 3.3%.

With COc1ccc(-c2oc3c(CC=C(C)C)c(O[C@@H]4O[C@H](CO)[C@@H](O)[C@H](O)[C@H]4O)cc(O)c3c(=O)c2O[C@@H]2O[C@@H](C)[C@H](O)[C@@H](O)[C@H]2O[C@@H]2OC[C@@H](O)[C@H](O)[C@H]2O)cc1 [Epimedin B] as the compound, how does the “OC43 Inhibition rate” value read?
Its value is 1%.

How did the “OC43 Inhibition rate” value turn out when N[C@@H](CS(=O)(=O)O)C(=O)O [L-Cysteic acid (monohydrate)] was run?
Its value is 4.5%.

COc1c(-c2ccc(O)c(O)c2)oc2cc(O)cc(O)c2c1=O [3-O-Methylquercetin] was tested. Which “OC43 Inhibition rate” value did it give?
The value was -0.7%.

For COC(=O)c1ccc(O)cc1 [Methyl Paraben], which “OC43 Inhibition rate” value is on record?
Its value is -3%.

Which “OC43 Inhibition rate” value does the source give for OC[C@H]1O[C@@](CO)(OC[C@@]2(OC[C@@]3(OC[C@@]4(OC[C@@]5(OC[C@@]6(OC[C@@]7(OC[C@@]8(O[C@H]9O[C@H](CO)[C@@H](O)[C@H](O)[C@H]9O)O[C@H](CO)[C@@H](O)[C@@H]8O)O[C@H](CO)[C@@H](O)[C@@H]7O)O[C@H](CO)[C@@H](O)[C@@H]6O)O[C@H](CO)[C@@H](O)[C@@H]5O)O[C@H](CO)[C@@H](O)[C@@H]4O)O[C@H](CO)[C@@H](O)[C@@H]3O)O[C@H](CO)[C@@H](O)[C@@H]2O)[C@@H](O)[C@@H]1O [Fructo-oligosaccharide DP9/GF8] here?
Its value is -1%.

Which “OC43 Inhibition rate” value does the source give for COc1cc2oc(-c3ccccc3)cc(=O)c2c(O)c1O [Negletein] here?
The value was 0.2%.

For O=C(O)C/C=C(\CC(=O)O)C(=O)O [Triglochinic acid], which “OC43 Inhibition rate” value is on record?
Its value is -0.3%.

O=C[C@H](O)[C@@H](O)[C@H](O)CO (racemic) [DL-Xylose] was tested. Which “OC43 Inhibition rate” value (OC43 Inhibition rate, 24 h) did it give?
The value was 3.6%.

For NC(=O)/C=C\C(=O)O [(Z)-4-Amino-4-oxobut-2-enoic acid], which “OC43 Inhibition rate” value is on record?
Its value is -0.2%.

For Cn1cnc(C[C@H](N)C(=O)O)c1 [1-Methyl-L-histidine], which “OC43 Inhibition rate” value is on record?
Its value is 7.3%.

Which “OC43 Inhibition rate” value does the source give for CCC(C(=O)O)c1ccccc1 (centres unmarked) [2-Phenylbutanoic acid] here?
The value was -1.9%.

For COc1ccccc1/C=C/C=O [2-Methoxycinnamaldehyde], which “OC43 Inhibition rate” value is on record?
The value was 0.2%.

COc1cc(CCC(=O)O)cc(OC)c1OC [3-(3,4,5-Trimethoxyphenyl)propanoic acid] was tested. Which “OC43 Inhibition rate” value did it give?
The value was -1.1%.

CC12CC3OC4O[C@H](CO)[C@@H](O)[C@H](O)[C@H]4OC34CC1C4(COC(=O)c1ccccc1)C(=O)O2 (some centres unmarked) [Lactiflorin] was tested. Which “OC43 Inhibition rate” value did it give?
Its value is 2%.

For CC1=C(CO)C(=O)O[C@@H]([C@@H](C)[C@H]2CC[C@H]3[C@@H]4C[C@H]5O[C@]56[C@@H](O)C=CC(=O)[C@]6(C)[C@H]4CC[C@]23C)C1 [Withaferin A], which “OC43 Inhibition rate” value is on record?
Its value is -10.2%.

Which “OC43 Inhibition rate” value does the source give for CCOC(=O)/C=C/c1ccccc1 [Ethyl cinnamate] here?
The value was -1.2%.

For COc1ccc(/C=C/C(=O)O)cc1 [(E)-3-(4-Methoxyphenyl)acrylic acid], which “OC43 Inhibition rate” value (OC43 Inhibition rate, 24 h) is on record?
The value was 1.2%.

For CC(=O)c1c(O)cccc1O [2,6-Dihydroxyacetophenone], which “OC43 Inhibition rate” value is on record?
Its value is -2%.

How did the “OC43 Inhibition rate” value turn out when COC(=O)c1c[nH]c2ccccc12 [Methyl indole-3-carboxylate] was run?
Its value is 0.5%.

With CC(C)=CCC/C(C)=C/CO [Geraniol] as the compound, how does the “OC43 Inhibition rate” value read?
Its value is 0.3%.

Reference: paper PMC12431657, “Discovery and mechanistic insights of dibenzoylmethane as a broad spectrum inhibitor of coronavirus” (PLOS Pathogens, 2025)
